Results on 53 compounds are retold here after the supplement of paper PMC12578635.

± gives the standard deviation of the averaged measurements. The list shows a part of the results. Repeats are few or missing, and single values can be far off.

The assay deals with RAW 264.7 macrophages infected with S. aureus JE2-lux. Nature of the assay: host macrophage viability (CellTiter-Fluor) relative to DMSO vehicle; higher = more viable host cells. The note with it: 10 µM; treatment time 4 h; gentamicin 50 µg/ml.
For `Cc1ccc([N+](=O)[O-])c(OCCSc2nnc3sc4ccccc4n23)c1`, the host macrophage viability worked out at 118 ± 13%.

Take `CCOc1ccc2c(c1)SC(CC(=O)Nc1sc(C)cc1C(=O)OC)C(=O)N2` (stereo not drawn): the host macrophage viability came out at 132%.

For the compound `CCn1cc(SCC(=O)NCc2ccccc2)c2ccccc21`, the host macrophage viability turned out to be 100%.

With `COc1ccc(OC)c(CNC(=O)Cn2cccc2-c2nc(-c3ccc(C)cc3)cs2)c1`, the host macrophage viability worked out at 107%.

For `CCOc1ccc2ccccc2c1C(=O)Nc1c2c(nn1-c1ccc(F)cc1)CS(=O)C2` (stereo not drawn), the host macrophage viability was 127%.

Regarding `Oc1cccc(C2=NN3C(C2)c2cc(Cl)ccc2OC3c2cccnc2)c1` (stereo not drawn), the host macrophage viability was 133%.

Regarding `COc1cccc(NC(=O)N2CCC(C(=O)NCC3CCCCC3)CC2)c1`, the host macrophage viability was determined as 109%.

In the case of `COc1cccc(OC)c1C(=O)Nc1nc2c(C)c(C)ccc2s1`, the host macrophage viability worked out at 124%.

For `CCOC(=O)c1cc([N+](=O)[O-])sc1NC(=O)c1ccc(S(=O)(=O)N2CC(C)CC(C)C2)cc1` (stereo not drawn), the host macrophage viability came to 103 ± 0.63%.

As for `Cc1cccc(NC(=O)c2nn(C)c3c2COc2ccccc2-3)n1`, the host macrophage viability is 109%.

In the case of `Cn1c(NC(=O)C2CCCC2)cc(=O)n(C)c1=O`, the host macrophage viability was determined as 117%.

In the case of `COc1ccc(-c2nsc(SCC(=O)NCc3ccco3)n2)cc1`, the host macrophage viability is 105.6 ± 0.78%.

Turning to `CCS(=O)(=O)Nc1ccc(C2=NN(C(C)=O)C(c3ccc(Cl)o3)C2)cc1` (stereo not drawn), the host macrophage viability was found to be 119%.

`CCOc1ccc2ccccc2c1C(=O)NCc1n[nH]c(=O)c2ccccc12`: the host macrophage viability is 114%.

In the case of `CCCn1c(=O)c(=O)[nH]c2cc(-c3noc(CCNS(=O)(=O)c4ccc(C)cc4)n3)ccc21`, the host macrophage viability turned out to be 122%.

On to `Cc1nnc(N2CCC(C(=O)O)CC2)c2nn(-c3ccccc3)c(C)c12`, for which the host macrophage viability amounted to 116%.

In the case of `Cc1ccc2[nH]c3nc(SCC(=O)Nc4ccc(S(=O)(=O)NC5CC5)cc4)nnc3c2c1`, the host macrophage viability was 108%.

`CC(=O)Nc1ccc(S(=O)(=O)N2CCN=C2SCc2cccc(F)c2)cc1`: the host macrophage viability came out at 120%.

Regarding `Cc1c(C)n(-c2ccc(F)c(F)c2)c2ncnc(NCc3ccc(F)cc3Cl)c12`, the host macrophage viability was found to be 100%.

With `CCc1ccc(-c2noc3c(=O)n(CCC(=O)Nc4cc(C)ccc4C)cnc23)cc1`, the host macrophage viability worked out at 106%.

For the compound `O=C(NC1CCS(=O)(=O)C1)c1cc2n(n1)CCCN(Cc1ccc(F)cc1)C2=O` (stereo not drawn), the host macrophage viability amounted to 105%.

Take `Cc1cc(C)c2cc(CNCCCN3CCOCC3)c3nn(C)c(=O)n3c2c1`: the host macrophage viability worked out at 134%.

For `N#CC(C(=O)c1ccc(Oc2ccccc2)cc1)=C1Nc2ccccc2N1`, the host macrophage viability worked out at 102%.

With `CC(=O)Nc1cccnc1-c1ccc(C(=O)NCCC2=CCCCC2)cc1`, the host macrophage viability was 103%.

For `Cc1ccc(C2=NC(C)(C)N=C2SCC(=O)Nc2ccccc2)cc1`, the host macrophage viability came to 136%.

`Cc1nc(NC(c2ccccc2)c2ccccc2)c2nnn(Cc3ccccc3)c2n1`: the host macrophage viability was 104%.

For `O=C(CCC(=O)N1CCc2ccccc21)Nc1noc2ccccc12`, the host macrophage viability came to 100%.

For `COCCNc1c(-c2cccc(F)c2)nc2sc3cc(OC)ccc3n12`, the host macrophage viability stood at 116%.

Regarding `COC(=O)c1ccccc1NC(=O)CSc1nccnc1N1CCSCC1`, the host macrophage viability was determined as 100%.

With `Cc1ccc(C)c(S(=O)(=O)Nc2ccc3nnc(C)n3n2)c1`, the host macrophage viability stood at 125%.

As to `Cc1cccc(NC(=O)Cn2cc(S(=O)(=O)Cc3ccccc3F)c3ccccc32)n1`, the host macrophage viability turned out to be 108%.

For `COC(=O)c1ccc(CSc2nncc(=O)n2N)o1`, the host macrophage viability was found to be 114%.

On to `COc1cccc2cc(C(=O)Nc3cccc(NC(=O)c4ccccn4)c3)c(=O)oc12`, for which the host macrophage viability came to 117%.

As to `Cc1ccccc1C(NC(=O)c1cc2c([nH]c1=O)CCCCC2)c1ccncc1` (stereo not drawn), the host macrophage viability was 101%.

Take `CCSc1ccccc1C(=O)N1CCN(c2nc3c(OC)ccc(C)c3s2)CC1`: the host macrophage viability was found to be 100%.

As to `Cc1ccc(S(=O)(=O)c2cnc(SCC(=O)Nc3ccccc3)[nH]c2=O)cc1C`, the host macrophage viability is 129%.

Take `O=C(NCc1cccs1)C1CCCN(C(=O)Nc2ccc(F)cc2)C1` (stereo not drawn): the host macrophage viability turned out to be 108%.

For `O=C(Nc1nc2c(s1)CCc1ccccc1-2)C1CC1`, the host macrophage viability is 124%.

`Clc1ccc(CSc2nnc3ccc(-c4ccncc4)nn23)cc1`: the host macrophage viability was found to be 114%.

Take `Cc1sc2c(c1C)c(=O)nc1scc(CC(=O)O)n12`: the host macrophage viability turned out to be 119%.

As for `O=C(CSc1ncnc2c1sc1nc3ccccc3cc12)N1CCOCC1`, the host macrophage viability was 113%.

Take `O=C(N/N=C/c1cc([N+](=O)[O-])ccc1O)c1ccc([N+](=O)[O-])cc1`: the host macrophage viability was 103 ± 1.7%.

Regarding `C=C(C)Cn1c(SCCN2CCOCC2)nc2c1c(=O)[nH]c(=O)n2C`, the host macrophage viability worked out at 122%.

For the compound `CCc1cnc2c(c1OC)c(=O)n(CC(=O)NCc1ccccc1)c(=O)n2C`, the host macrophage viability came to 118%.

Regarding `Cc1cc(C)cc(/N=c2\oc3c(C)ncc(CO)c3cc2C(N)=O)c1`, the host macrophage viability stood at 127%.

`NC1=NN(c2ccccc2)C(=O)/C1=N/Nc1ccc(-c2ccccc2)cc1`: the host macrophage viability was 83.1%.

As for `O=C(NCc1cccnc1)C(=O)NCC(c1ccco1)N1CCN(c2ccc(F)cc2)CC1` (stereo not drawn), the host macrophage viability worked out at 116%.

For the compound `CC(C)(C)n1nc2c(c1NC(=O)c1ccc(Br)cc1)CS(=O)C2` (stereo not drawn), the host macrophage viability came out at 124%.

As for `COc1cc(C2NC(=O)NC3=C2C(=O)N(Cc2ccc(F)cc2)C3)cc(OC)c1OC` (stereo not drawn), the host macrophage viability stood at 118%.

For `Cc1ccc(-c2cnc3ccccc3n2)cc1NC(=O)CN1CC(C)OC(C)C1` (stereo not drawn), the host macrophage viability is 99.9%.

As to `Cc1nc(SCC(=O)c2ccc3c(c2)OCCO3)c2c3c(sc2n1)CCC3`, the host macrophage viability amounted to 124%.

As to `COc1cc(NC(=O)Nc2c(-c3cccnc3)[nH]c3ccc(Cl)cc23)cc(OC)c1`, the host macrophage viability was 94.6%.

As for `CC1CCN(CC(O)Cn2c3ccccc3c3ccccc32)CC1` (stereo not drawn), the host macrophage viability worked out at 114%.
